# Measured values published in article doi:10.1101/2020.09.18.302265.
# The chains behind the UniProt entries cited, without tags or fusion partners.
# UniProt O75838: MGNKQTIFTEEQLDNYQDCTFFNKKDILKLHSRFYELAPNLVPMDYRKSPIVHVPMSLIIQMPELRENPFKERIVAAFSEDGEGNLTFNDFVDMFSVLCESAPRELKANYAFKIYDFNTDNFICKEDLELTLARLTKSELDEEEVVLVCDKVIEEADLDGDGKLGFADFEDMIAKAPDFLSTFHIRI
# Results are given in words; binding and its absence hold for the method and conditions named. Where a sequence is shown, tags or fusion partners need not be part of it.
# Molecular target: GFP-hCIB2 (calcium and integrin binding protein 2) (human) (UniProt O75838)
# Test: NanoSPD
binder,measurement,value
"FLAG-tagged TSC1 (protein, UniProt Q92574 1-1164) MAQQANVGELLAMLDSPMLGVRDDVTAVFKENLNSDRGPMLVNTLVDYYLETSSQPALHILTTLQEPHDKHLLDRINEYVGKAATRLSILSLLGHVIRLQPSWKHKLSQAPLLPSLLKCLKMDTDVVVLTTGVLVLITMLPMIPQSGKQHLLDFFDIFGRLSSWCLKKPGHVAEVYLVHLHASVYALFHRLYGMYPCNFVSFLRSHYSMKENLETFEEVVKPMMEHVRIHPELVTGSKDHELDPRRWKRLETHDVVIECAKISLDPTEASYEDGYSVSHQISARFPHRSADVTTSPYADTQNSYGCATSTPYSTSRLMLLNMPGQLPQTLSSPSTRLITEPPQATLWSPSMVCGMTTPPTSPGNVPPDLSHPYSKVFGTTAGGKGTPLGTPATSPPPAPLCHSDDYVHISLPQATVTPPRKEERMDSARPCLHRQHHLLNDRGSEEPPGSKGSVTLSDLPGFLGDLASEEDSIEKDKEEAAISRELSEITTAEAEPVVPRGGFDSPFYRDSLPGSQRKTHSAASSSQGASVNPEPLHSSLDKLGPDTPKQAFTPIDLPCGSADESPAGDRECQTSLETSIFTPSPCKIPPPTRVGFGSGQPPPYDHLFEVALPKTAHHFVIRKTEELLKKAKGNTEEDGVPSTSPMEVLDRLIQQGADAHSKELNKLPLPSKSVDWTHFGGSPPSDEIRTLRDQLLLLHNQLLYERFKRQQHALRNRRLLRKVIKAAALEEHNAAMKDQLKLQEKDIQMWKVSLQKEQARYNQLQEQRDTMVTKLHSQIRQLQHDREEFYNQSQELQTKLEDCRNMIAELRIELKKANNKVCHTELLLSQVSQKLSNSESVQQQMEFLNRQLLVLGEVNELYLEQLQNKHSDTTKEVEMMKAAYRKELEKNRSHVLQQTQRLDTSQKRILELESHLAKKDHLLLEQKKYLEDVKLQARGQLQAAESRYEAQKRITQVFELEILDLYGRLEKDGLLKKLEEEKAEAAEAAEERLDCCNDGCSDSMVGHNEEASGHNGETKTPRPSSARGSSGSRGGGGSSSSSSELSTPEKPPHQRAGPFSSRWETTMGEASASIPTTVGSLPSSKSFLGMKARELFRNKSESQCDEDGMTSSLSESLKTELGKDLGVEAKIPLNLDGPHPSPPTPDSVGQLHIMDYNETHHEHS",binding,no binding
